The results in this text go back to patent US20220193198A1 (INSTITUT CURIE, published 2022).

The target in this assay is T1, IL-2Rαβγ (human, UniProt P01589 22-272; P14784 27-551; P31785 23-369).
T1 construct: whole, on cells; also called IL-2 receptor alpha (CD25), beta (CD122), gamma (CD132)
T1 sequence (looked up) 1: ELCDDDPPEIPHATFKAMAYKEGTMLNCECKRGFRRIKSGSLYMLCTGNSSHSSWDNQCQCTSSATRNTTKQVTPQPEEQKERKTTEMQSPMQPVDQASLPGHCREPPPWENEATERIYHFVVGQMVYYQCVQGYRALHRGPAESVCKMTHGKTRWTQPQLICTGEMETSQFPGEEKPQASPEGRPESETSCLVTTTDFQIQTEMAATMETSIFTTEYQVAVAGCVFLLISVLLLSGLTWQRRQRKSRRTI
T1 sequence (looked up) 2: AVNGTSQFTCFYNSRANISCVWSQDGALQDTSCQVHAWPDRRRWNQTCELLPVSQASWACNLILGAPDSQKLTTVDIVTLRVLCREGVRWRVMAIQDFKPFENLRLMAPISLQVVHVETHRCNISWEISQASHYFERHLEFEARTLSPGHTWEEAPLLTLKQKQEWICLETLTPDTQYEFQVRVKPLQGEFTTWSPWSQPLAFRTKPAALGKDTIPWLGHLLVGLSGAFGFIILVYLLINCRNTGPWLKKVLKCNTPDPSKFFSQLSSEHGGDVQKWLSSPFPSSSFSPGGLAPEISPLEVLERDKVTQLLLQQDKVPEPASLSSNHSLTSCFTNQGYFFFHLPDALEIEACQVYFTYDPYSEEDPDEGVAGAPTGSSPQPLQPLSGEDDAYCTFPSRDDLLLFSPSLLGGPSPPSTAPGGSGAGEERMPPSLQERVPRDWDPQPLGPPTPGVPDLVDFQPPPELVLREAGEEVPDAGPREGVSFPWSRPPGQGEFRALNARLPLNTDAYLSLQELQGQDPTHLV
T1 sequence (looked up) 3: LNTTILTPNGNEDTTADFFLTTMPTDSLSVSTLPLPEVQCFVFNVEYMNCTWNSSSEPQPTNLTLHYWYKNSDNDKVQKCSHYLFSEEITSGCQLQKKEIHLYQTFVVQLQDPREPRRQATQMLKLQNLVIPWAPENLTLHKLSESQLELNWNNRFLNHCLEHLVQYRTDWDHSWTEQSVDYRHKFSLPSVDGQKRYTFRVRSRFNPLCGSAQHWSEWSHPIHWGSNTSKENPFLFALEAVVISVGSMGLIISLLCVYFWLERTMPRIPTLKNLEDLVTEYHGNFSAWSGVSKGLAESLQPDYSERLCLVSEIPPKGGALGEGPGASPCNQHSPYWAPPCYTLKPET
Description: Flow cytometry on Kit225 cells, 10 µM Strep-tagged variant, Strep-Tactin-A488 detection. Here is the method:
Binding of IL-2 variants to the IL-2Rαβγ was assayed in IL-2-dependent human cell line Kit225 cell line that constitutively expresses IL-2Rαβγ. For ease of detection, IL-2 variants were produced with a Streptavidin Tag that allows the detection of the molecules by FACS using an anti-Streptavidin-Tag antibody (a-Strep-Tag Ab). For the experiment, Kit225 cells were deprived of IL-2 for 2 days. After that, 0.2×10⁶ cells were incubated on ice for 20 min alone or with 10 μM of IL-2 wt, IL-2V1, V2, V3, V4, V5 and V6. After wash with PBS/0.2% BSA buffer, cells were stained with an a-Strep-Tag Ab (Strep-Tactin-A488, Iba) for 20 min at 4° C. Cells were acquired on a LSRII flow cytometer and analyzed with FlowJo software.
For orientation: A flow cytometer gives signals particle by particle.

B1: IL-2V2 (ligand)
chain: APTSSTKETQEQLERLLRDLQLILKGINNPKNPKLTRMLTFKFYMPKQATSLKHLQCLEEELKPLEEVLNLAQSKNFHLEPRNLINNINKIVLKLKGSETTFMCEYADETATIVEFLKRWIAFCQSIISRSTGALVPRGSSAWSHPQFEKGGGSGGGSGGGSAWSHPQFEK
notes: 171 aa construct with C-terminal Strep-tag
For B1, the binding result was “binds”.

B2: IL-2V5 (ligand)
chain: APTSSTKETQEQLERLLRDLQLILKGINNPKNPKLTRMLTFKFYMPKKATELKHLQCLEEELKPLEEVLNLAQSKNFHLRPRDLINNINKIVLKLKGSETTFMCEYADETATIVEFLKRWIAFCQKIISTLTGALVPRGSSAWSHPQFEKGGGSGGGSGGGSAWSHPQFEK
notes: 171 aa construct with C-terminal Strep-tag; Substitutions: K9E, L12E, H16R, L19R, M23L, N26K, Y31P, S87N, V91K, E95K, N119K, T123A, S127K
For the molecule B2, the binding result is reported as “binds”.

B3: IL-2V3 (ligand)
chain: APTSSTKETQEQLERLLRDLQLILKGINNPKNPKLTRMLTFKFYMPKQATSLKHLQCLEEELKPLEEVLNLAQSKNFHLEPRNLINNINKIVLKLKGSETTFMCEYADETATIVEFLNRWITFCQSIISRSTGALVPRGSSAWSHPQFEKGGGSGGGSGGGSAWSHPQFEK
notes: 171 aa construct with C-terminal Strep-tag; Substitutions: K9E, L12E, H16R, L19R, M23L, N26K, Y31P, K49Q, E52S, R81E, D84N, S87N, V91K, E95K, T131R, L132S
Turning to B3, the binding result was “binds”.

B4: IL-2V1 (ligand)
chain: APTSSTKETQEQLERLLRDLQLILKGINNYKNPKLTRMLTFKFYMPKKATELKHLQCLEEELKPLEEVLNLAQSKNFHLRPRDLINNINKIVLKLKGSETTFMCEYADETATIVEFLKRWIAFCQKIISTLTGALVPRGSSAWSHPQFEKGGGSGGGSGGGSAWSHPQFEK
notes: 171 aa construct with C-terminal Strep-tag, made in HEK293 FreeStyle cells; the monomeric peak was used
For the molecule B4, the binding result was “binds”.

B5: IL-2V6 (ligand)
chain: APTSSTKETQEQLERLLRDLQLILKGINNYKNPKLTRMLTFKFYMPKQATSLKHLQCLEEELKPLEEVLNLAQSKNFHLEPRNLINNINKIVLKLKGSETTFMCEYADETATIVEFLKRWIAFCQSIISRSTGALVPRGSSAWSHPQFEKGGGSGGGSGGGSAWSHPQFEK
notes: 171 aa construct with C-terminal Strep-tag; Substitutions: K9E, L12E, H16R, L19R, M23L, N26K, K49Q, E52S, R81E, D84N, S87N, V91K, E95K, N119K, T123A, T131R, L132S
With B5, the binding result is “binds”.

B6: IL-2V4 (ligand)
chain: APTSSTKKTQLQLEHLLLDLQMILNGINNPKNPKLTRMLTFKFYMPKKATELKHLQCLEEELKPLEEVLNLAQSKNFHLRPRDLISNINVIVLELKGSETTFMCEYADETATIVEFLNRWITFCQSIISTLTGALVPRGSSAWSHPQFEKGGGSGGGSGGGSAWSHPQFEK
notes: 171 aa construct with C-terminal Strep-tag; Substitution: Y31P only
Turning to B6, the binding result is recorded as “binds”.
